No constants are given. Whether binding was seen depends on the method and setting. Binding seen in cells or lysates may run through a third protein. Some results given as binding are weak or reduced against the parent protein; the word gives no strength.
T1: FAS-associated death domain protein (mouse (endogenous in MEFs)), Q61160
T1 chain: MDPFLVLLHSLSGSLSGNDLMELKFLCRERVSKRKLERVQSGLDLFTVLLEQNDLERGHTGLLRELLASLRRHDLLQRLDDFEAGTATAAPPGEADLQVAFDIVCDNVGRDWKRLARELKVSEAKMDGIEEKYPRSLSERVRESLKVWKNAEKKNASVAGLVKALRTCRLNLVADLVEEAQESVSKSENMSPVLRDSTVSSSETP

T2: Z-DNA-binding protein 1 (mouse (endogenous in MEFs)), Q9QY24
T2 chain: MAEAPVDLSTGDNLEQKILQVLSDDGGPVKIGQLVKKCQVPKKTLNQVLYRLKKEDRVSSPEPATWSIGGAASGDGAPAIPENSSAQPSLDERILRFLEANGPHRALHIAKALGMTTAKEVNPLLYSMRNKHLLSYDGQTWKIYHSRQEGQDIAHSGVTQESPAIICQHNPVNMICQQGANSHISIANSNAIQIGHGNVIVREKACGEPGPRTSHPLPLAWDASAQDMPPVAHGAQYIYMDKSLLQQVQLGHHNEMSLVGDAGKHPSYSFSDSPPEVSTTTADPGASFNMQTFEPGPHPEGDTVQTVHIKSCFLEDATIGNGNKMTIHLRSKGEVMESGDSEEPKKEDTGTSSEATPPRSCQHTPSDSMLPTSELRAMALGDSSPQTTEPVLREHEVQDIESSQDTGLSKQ


Tests used:
[1] = molecular target: T1, FAS-associated death domain protein …; experiment: co-IP; anti-FADD antibody on G-Sepharose beads, lysates of immortalized Mlkl-/- MEFs pretreated with or without DMXAA overnight, then TNF (100 ng/ml), Z-VAD-FMK (20 uM) and BV6 (2 uM) for 48 h; overnight at 4 °C; washes with 150 mM NaCl, Tris-HCl pH 7.4, 5% glycerol, 0.5% Triton X-100; immunoblot; details: remark: other sources report otherwise
[2] = molecular target: T2, Z-DNA-binding protein 1 (mouse …); experiment: co-IP; anti-ZBP1 antibody on G-Sepharose beads, lysates of immortalized Mlkl-/-, Fadd-/-Mlkl-/- and Casp8-/-Mlkl-/- MEFs, basal or treated with DMXAA, C-178, TNF, Z-VAD-FMK and BV6 for 48 h; overnight at 4 °C; washes with 150 mM NaCl, Tris-HCl pH 7.4, 5% glycerol, 0.5% Triton X-100; immunoblot; details: remark: other sources report otherwise

| Binder | binding [1] | binding [2] |
| --- | --- | --- |
| receptor-interacting serine/threonine-protein kinase 3, Q9QZL0 1-486 (protein) MSSVKLWPTGASAVPLVSREELKKLEFVGKGGFGVVFRAHHRTWNHDVAVKIVNSKKISWEVKAMVNLRNENVLLLLGVTEDLQWDFVSGQALVTRFMENGSLAGLLQPECPRPWPLLCRLLQEVVLGMCYLHSLNPPLLHRDLKPSNILLDPELHAKLADFGLSTFQGGSQSGSGSGSGSRDSGGTLAYLDPELLFDVNLKASKASDVYSFGILVWAVLAGREAELVDKTSLIRETVCDRQSRPPLTELPPGSPETPGLEKLKELMIHCWGSQSENRPSFQDCEPKTNEVYNLVKDKVDAAVSEVKHYLSQHRSSGRNLSAREPSQRGTEMDCPRETMVSKMLDRLHLEEPSGPVPGKCPERQAQDTSVGPATPARTSSDPVAGTPQIPHTLPFRGTTPGPVFTETPGPHPQRNQGDGRHGTPWYPWTPPNPMTGPPALVFNNCSEVQIGNYNSLVAPPRTTASSSAKYDQAQFGRGRGWQPFHK | binds |  |
| receptor-interacting serine/threonine-protein kinase 1, Q60855 1-656 (protein) MQPDMSLDNIKMASSDLLEKTDLDSGGFGKVSLCYHRSHGFVILKKVYTGPNRAEYNEVLLEEGKMMHRLRHSRVVKLLGIIIEEGNYSLVMEYMEKGNLMHVLKTQIDVPLSLKGRIIVEAIEGMCYLHDKGVIHKDLKPENILVDRDFHIKIADLGVASFKTWSKLTKEKDNKQKEVSSTTKKNNGGTLYYMAPEHLNDINAKPTEKSDVYSFGIVLWAIFAKKEPYENVICTEQFVICIKSGNRPNVEEILEYCPREIISLMERCWQAIPEDRPTFLGIEEEFRPFYLSHFEEYVEEDVASLKKEYPDQSPVLQRMFSLQHDCVPLPPSRSNSEQPGSLHSSQGLQMGPVEESWFSSSPEYPQDENDRSVQAKLQEEASYHAFGIFAEKQTKPQPRQNEAYNREEERKRRVSHDPFAQQRARENIKSAGARGHSDPSTTSRGIAVQQLSWPATQTVWNNGLYNQHGFGTTGTGVWYPPNLSQMYSTYKTPVPETNIPGSTPTMPYFSGPVADDLIKYTIFNSSGIQIGNHNYMDVGLNSQPPNNTCKEESTSRHQAIFDNTTSLTDEHLNPIRENLGRQWKNCARKLGFTESQIDEIDHDYERDGLKEKVYQMLQKWLMREGTKGATVGKLAQALHQCCRIDLLNHLIRASQS |  | binds |
